Drawing on PubChem BioAssay AID248 (DTP/NCI, 2004), this text covers survivor count for 17 compounds.

The experiment deals with L1210 leukemia ip in BDF1 mice, survival T/C. The experiment can be described thus: NCI In Vivo Anticancer Drug Screen. Data for tumor model L1210 Leukemia (intraperitoneal) in B6D2F1 (BDF1) mice. Conditions: T/C endpoint: mean survival time, higher T/C = longer survival.
[1] abbreviates: dose: 200.0 mg/kg/injection, schedule: Q01DX001 (ip), vehicle: saline.
[2] abbreviates: dose: 400.0 mg/kg/injection, schedule: Q01DX001 (ip), vehicle: saline.
Setting [3] is: dose: 200.0 mg/kg/injection, schedule: Q04DX003 (ip), vehicle: saline.
[4] abbreviates: dose: 400.0 mg/kg/injection, schedule: Q04DX003 (ip), vehicle: saline.
[5] abbreviates: dose: 100.0 mg/kg/injection, schedule: Q01DX009 (ip), vehicle: saline.
[6] abbreviates: dose: 200.0 mg/kg/injection, schedule: Q01DX009 (ip), vehicle: saline.

The list shows only some results of the screen, not a fair sample: it is rich in T/C values a quarter to a half above the control, in often repeated tests (any T/C) and in doses without a T/C. Further doses and runs are listed elsewhere. T/C is the treated group as % of the vehicle group. Some entries give survivors of the animals treated and no T/C: the source files T/C as zero there, which appears to mark a toxic dose or a test without result, not a measured value. Some survivor counts are full or nearly so, which does not show that the dose was tolerated: the source hardly ever lists a survival T/C far under the control, and the zero likely stands for such cases as well. Survivors were counted at the toxicity check, usually on the fifth day, unless a day is given; later deaths do not show. Schedules are NCI's codes, read here as Q, the interval in days (D) or hours (H), X, the number of doses. Some structures stand for samples that the source files as different forms (salt, stereo form or complex); doses refer to the form tested. Some doses were run more than once; their values stand side by side, smallest first.

On to `CSc1ccccc1N.[Cl][Cu][Cl]`, for which the survivor count is recorded as 2 of 4 (dose: 20.0 mg/kg/injection, schedule: Q01DX001 (ip), vehicle: saline); 0 of 4 (dose: 40.0 mg/kg/injection, schedule: Q01DX001 (ip), vehicle: saline); 0 of 4 (dose: 50.0 mg/kg/injection, schedule: Q01DX001 (ip), vehicle: saline); 0 of 4 (dose: 80.0 mg/kg/injection, schedule: Q01DX001 (ip), vehicle: saline); 0 of 4 (dose: 100.0 mg/kg/injection, schedule: Q01DX001 (ip), vehicle: saline); 0 of 4 under setting [1]. Besides, under setting [2], the survivor count is 0 of 4.
`CC(C)CC(CC(C)C)NCC(C)OC(=O)c1ccc(N)cc1` (configuration not stated): the survivor count was 5 of 6 (dose: 50.0 mg/kg/injection, schedule: Q01DX009 (ip), vehicle: saline with Tween-80); 1 of 6 (dose: 100.0 mg/kg/injection, schedule: Q01DX009 (ip), vehicle: saline with Tween-80); 2 of 6 (dose: 100.0 mg/kg/injection, schedule: Q04DX003 (ip), vehicle: water); 1 of 6 and 2 of 6 (dose: 150.0 mg/kg/injection, schedule: Q01DX001 (ip), vehicle: other); 0 of 6 (dose: 200.0 mg/kg/injection, schedule: Q01DX009 (ip), vehicle: saline with Tween-80); 0 of 6 under setting [3]. Moreover, the survivor count by setting is: (dose: 200.0 mg/kg/injection, schedule: Q04DX003 (ip), vehicle: water) 0 of 6; (dose: 300.0 mg/kg/injection, schedule: Q01DX001 (ip), vehicle: other) 0 of 6 and 1 of 6; under setting [4], 0 of 6; (dose: 400.0 mg/kg/injection, schedule: Q04DX003 (ip), vehicle: water) 0 of 6.
`Cc1ccc(S(=O)(=O)OCCN(CCO)c2cn(C(c3ccccc3)(c3ccccc3)c3ccccc3)c(=O)n(C(c3ccccc3)(c3ccccc3)c3ccccc3)c2=O)cc1`: under setting [2], the survivor count is listed as 4 of 4.
As for `CNC1(C(N)=O)CCN(Cc2ccccc2)CC1`, the survivor count (dose: 400.0 mg/kg/injection, schedule: Q04DX003 (ip), vehicle: saline with Tween-80) is reported as 3 of 6.
In the case of `Cc1cc(N)c(S)cc1C`, the survivor count is recorded as 3 of 3 (dose: 100.0 mg/kg/injection, schedule: Q04DX002 (ip), vehicle: saline with Tween-80); 3 of 6 under setting [1]; 0 of 3 (dose: 200.0 mg/kg/injection, schedule: Q04DX002 (ip), vehicle: saline with Tween-80); 1 of 6 under setting [2]; 0 of 3 (dose: 400.0 mg/kg/injection, schedule: Q04DX002 (ip), vehicle: saline with Tween-80).
For `O=C(O)CCC(=O)NCCNC(c1ccccc1)(c1ccccc1)c1ccccc1`, the survivor count runs as follows: under setting [5], 3 of 6; under setting [6], 3 of 6; (dose: 400.0 mg/kg/injection, schedule: Q01DX009 (ip), vehicle: saline) 0 of 6.
Regarding `COc1ccc(/C=N\NC(=O)CCCC(=O)N/N=C/c2ccc(OC)cc2)cc1`, where the note is “dose: 400.0 mg/kg/injection, schedule: Q01DX001 (ip), vehicle: other”, the survivor count is 4 of 4.
For `CC(C)(C)c1ccc(S(=O)(=O)C/C=C/COc2ccccc2)cc1`, the survivor count (dose: 300.0 mg/kg/injection, schedule: Q01DX009 (ip), vehicle: Klucel (hydroxypropylcellulose) (HPC)) was 5 of 6.
Turning to `CN1CCN(CCSC(=O)N2c3ccccc3Sc3ccc(Cl)cc32)CC1`, the survivor count is recorded as 2 of 6 (dose: 150.0 mg/kg/injection, schedule: Q01DX001 (ip), vehicle: saline) and 0 of 6 (dose: 300.0 mg/kg/injection, schedule: Q01DX001 (ip), vehicle: saline).
As for `CC1CC(CN2c3ccccc3Sc3ccccc32)C(C)N1C` (configuration not stated), the survivor count (dose: 50.0 mg/kg/injection, schedule: Q04DX003 (ip), vehicle: acetone) was 0 of 6; the survivor count (dose: 100.0 mg/kg/injection, schedule: Q04DX003 (ip), vehicle: saline) is given as 3 of 6; the survivor count under setting [3] is 0 of 6; the survivor count under setting [4] was 0 of 6.
For `CCN(CCC[N+](C)(C)C)C(=O)C(c1ccccc1)c1ccccc1`, the survivor count reads like this: under setting [3], 3 of 6; under setting [4], 0 of 6.
Turning to `O=C1N2CCOC2=NC1(c1ccccc1)c1ccccc1`, the survivor count runs as follows: under setting [5], 5 of 6; under setting [6], 0 of 6; under setting [4], 5 of 6.
As to `O=c1[nH]nc(SCc2ccccc2)c(=S)[nH]1`, the survivor count was 6 of 6 (dose: 88.0 mg/kg/injection, schedule: Q01DX015 (ip), vehicle: other) and 5 of 6 (dose: 133.0 mg/kg/injection, schedule: Q01DX015 (ip), vehicle: other).
On to `O=S(=O)(Oc1ccc(Cl)cc1)c1ccc(Cl)cc1`, for which the survivor count under setting [6] is reported as 6 of 6.
For `COC(=O)C12C(=CCP1(C)=O)C(c1ccccc1)=NN2c1ccccc1` (configuration not stated), where the note is “dose: 50.0 mg/kg/injection, schedule: Q04DX002 (ip), vehicle: saline with Tween-80”, the survivor count was 3 of 3.
As to `Cc1cc(N(CCOS(C)(=O)=O)CCOS(C)(=O)=O)ccc1C=Nc1cccc(Br)c1`, the survivor count by setting is: (dose: 200.0 mg/kg/injection, schedule: Q04DX003 (ip), vehicle: Klucel (hydroxypropylcellulose) (HPC)) 6 of 6; (dose: 400.0 mg/kg/injection, schedule: Q04DX003 (ip), vehicle: Klucel (hydroxypropylcellulose) (HPC)) 1 of 6.
On to `COc1cc([N+](=O)[O-])ccc1NC(=O)Nc1cccc(C(F)(F)F)c1`, for which the survivor count (dose: 400.0 mg/kg/injection, schedule: Q01DX009 (ip), vehicle: gum acacia) is listed as 6 of 6.
